Experimental data taken from PubChem BioAssay AID1347076 (National Center for Advancing Translational Sciences (NCATS), 2019).
Among all 400,000 compounds or so, about 13,000 (3.2%) were called active. The inconclusive results got no clear call from the source; some entries with a clear call stand among them for comparison. The call rests on the fitted dose curve; in most records, active means well fitted cell-killing curve with a large enough effect; inconclusive means small, poorly fitted or top-dose-only effect, or effect the other way; inactive means flat fitted curve, though single readings scatter. Potencies beside an inconclusive call are fits to weak or partial responses and may not hold up.
On the % scale 0 is the no-effect control and ±100 the full control effect; potency means the concentration at half of the fitted maximal effect.

Test: qHTS assay for MDR1-selective chemotherapeutics: Primary screen using the drug-selected MDR subline cells KB-V1; further: nearly all actives have a fitted effect of over 60% in size
Conditions: KB-V1 MDR cells viability, CellTiter-Glo, 72 h; activity change, negative = cytotoxicity: at 46.1 µM (top of the series)
In short: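 Cytotoxicity toward P-gp-expressing KB-V1 cells was determined as loss of CellTiter-Glo luminescence after 72 h at 37 degrees C. Compounds were tested in quantitative HTS format across a concentration range, with curves fitted to normalized data.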
For CCOc1ccc2nc(NC(=O)c3ccccn3)sc2c1, the Potency was inconclusive: 23.1 µM [cytotoxic, single point].
With Nc1nc(N)c2c(Oc3ccc(F)cc3)cccc2n1 the Potency was inconclusive: 1.16 µM [cytotoxic, full curve].
In the case of O=C(NCc1ccccc1)c1ccccc1NC(=O)C1CCCCC1, the Potency is reported as inconclusive: 8.2 µM [cytotoxic, partial curve].
For Nc1nc(Nc2ccccc2F)nc(N2CCCC2)c1[N+](=O)[O-], the Potency was inconclusive: 25.9 µM [cytotoxic, single point].
For CCN(CC(=O)Nc1c(F)cccc1F)C(=O)/C=C/c1ccc(Br)s1, the Potency was inconclusive: 23.1 µM [cytotoxic, single point].
In the case of O=S(=O)(c1cccc2nsnc12)N1CCOCC1, the “activity change, negative = cytotoxicity” value is reported as inactive: 14%.
For O=C(CN(c1cccc(C(F)(F)F)c1)S(=O)(=O)c1ccccc1)Nc1cccc(Cl)c1, the Potency was inconclusive: 29.1 µM [cytotoxic, single point].
With O=C(Nc1ccccc1)c1ccc(NC(=O)C2CC2)cc1 the activity change, negative = cytotoxicity was inconclusive: -17.1%.
With CC(C)(C)OC(=O)NCc1ccc(NC(=O)c2nc[nH]c2C(=O)NCCCCNC(=O)c2[nH]cnc2C(=O)Nc2ccc(CNC(=O)OC(C)(C)C)cc2)cc1 the “activity change, negative = cytotoxicity” value was inactive: 0%.
In the case of COc1ccc(OC)c(/C=C2\C=Cc3ccccc32)c1, the Potency is reported as inconclusive: 29.1 µM [cytotoxic, single point].
In the case of COC(=O)c1cc(C)sc1NC(=O)CN1CCN(C(=O)C2CCCO2)CC1 (centres undefined), the Potency is reported as inconclusive: 29.1 µM [cytotoxic, single point].
With COc1ccc(-c2csc(NC(=O)CSc3n[nH]c(N)n3)n2)cc1 the “activity change, negative = cytotoxicity” value was inactive: -7.36%.
For COc1ccc(C(C(=O)NC2CCCC2)N(CC2CCCO2)C(=O)Cn2nnc(-c3ccc(C)o3)n2)cc1 (centres undefined), the Potency was inconclusive: 2.31 µM [cytotoxic, partial curve, poor fit].
With O=C(CCS(=O)(=O)c1ccccc1)Nc1nc2c(s1)CCCC2 the Potency was inconclusive: 18.4 µM [cytotoxic, single point].
With COc1ccccc1NC(=O)c1c(C)nc2ccccc2c1C(=O)O the “activity change, negative = cytotoxicity” value was inactive: 6.63%.
With O=C(NC1CCCC1)C(c1ccccc1)n1c(CSCCOc2ccccc2)nc2ccccc21 (centres undefined) the Potency was inconclusive: 2.31 µM [cytotoxic, partial curve, poor fit].
For CCOc1ccc(CN(C)CC(O)COC(c2ccc(OC)cc2)c2ccc(OC)cc2)cc1 (centres undefined), the Potency was inconclusive: 23.1 µM [cytotoxic, single point].
For Cc1cccc(C(=O)Nc2sc3c(c2C(=O)Nc2ccccc2)CCC3)c1, the “activity change, negative = cytotoxicity” value was inactive: -4.88%.
For COc1ccc2[nH]c(=O)c(CN(CC3CCCO3)C(=S)Nc3ccccc3)cc2c1 (centres undefined), the “activity change, negative = cytotoxicity” value was inactive: -1.03%.
